Values quoted from earlier work as cited in patent US8178709B2, “Iron preparation suitable for pharmaceutical formulation and process for the preparation thereof” (BioLink Life Sciences, Inc., priority 2009, dated 2012).

Conditions: stability constant for ferric iron and the ligand; cited from earlier work

Row | SMILES | log Kstab
1 | O=C(O)CC(O)(CC(=O)O)C(=O)O [citrate] | 12
2 | O=P(O)(O)OP(=O)(O)O [pyrophosphate] | 22.2
